This is an account of results in patent CN103421115A.

Amino acid sequences for entries named in this document (tags omitted). Residues count along the entry.
UniProt P28907, residues 43-300: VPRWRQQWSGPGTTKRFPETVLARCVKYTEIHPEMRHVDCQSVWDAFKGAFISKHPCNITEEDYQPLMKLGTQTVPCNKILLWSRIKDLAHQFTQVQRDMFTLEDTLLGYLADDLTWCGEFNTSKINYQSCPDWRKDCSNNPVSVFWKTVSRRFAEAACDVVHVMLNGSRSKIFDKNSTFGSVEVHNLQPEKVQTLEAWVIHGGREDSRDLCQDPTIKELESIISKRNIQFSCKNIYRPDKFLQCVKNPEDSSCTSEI

No constants are given. Whether binding was seen depends on the method and setting. Some binding calls cover weakened binding; strength is not graded here.

The target in this assay is 人工合成的CD38多肽 (GenBank:BAA18966.1) (UniProt P28907). Nature of the assay: ELISA of crude periplasmic extract on coated CD38, anti-HA detection, OD405; a clone is positive when sample OD is more than 3 times control OD. (In general: ELISA stands for enzyme-linked immunosorbent assay.)

B1: CD38纳米抗体 VHH链 SEQ ID NO:16 (VHH)
VHH: QVQLQESGGGSVQAGGSLRLSCAASEYTSCTSCMGWFRQALGQEREGVAAISKIGLATAYADSVKGRFTISRDGDKNVAYLEMHNLRPDDTAMYYCAAHRVCRVLCSQRNYVYWGQGTQVTVSS
Turning to B1, the binding entry is on record as “binds”.

B2: CD38纳米抗体 VHH链 SEQ ID NO:15 (VHH)
VHH: QVQLQESGGGSVQAGGSLRLSCAASEYNFSTFCMGWFRQALGQEREGVAAISTNPLPTAYADSVKGRFTISRDGDKNVAYLEMHNLRPDDTAMYYCAADRLCGALCSQTQFDYWGQGTQVTVSS
Regarding B2, the binding result is “binds”.
